Reference: PubChem BioAssay AID1224830 (NIAID, 2016)
Test: 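Regulators of TLR4 signalling towards TNF-alpha in macrophage-like cells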 (primary screen). Cells: human THP-1 monocytic leukaemia cells, TNF dual-luciferase reporter clone, PMA-differentiated to macrophage-like cells. Reagents: siRNA pool against human genes, 50 nM. Timing: LPS for 4 h, given about 3 days after siRNA transfection. Conditions: bacterial LPS (TLR4 ligand), 10 ng/ml. Read-out: 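TNF firefly reporter luminescence divided by renilla, normalised to the plate median, then turned into a robust z-score for each replicate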. Scale: TNF reporter robust z-score: higher = stronger TNF reporter response to LPS. Hit rule: 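Each well counts as active if its z-score is over 2.8 or under -1.5; controls are left without a call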.
Shown is a random part of about 18,000 reagents. About 2,900 of all reagents (16%) count as active. 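Calls are made per well; low scores hint the gene aids the LPS response, high scores that it dampens it.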 Repeated entries: four replicate wells of each siRNA pool.

TBC1D28 (GeneID 254272): TNF reporter robust z-score = 0.59; outcome = inactive
TBC1D28 (GeneID 254272): TNF reporter robust z-score = 0.84; outcome = inactive
TBC1D28 (GeneID 254272): TNF reporter robust z-score = 0.45; outcome = inactive
TBC1D28 (GeneID 254272): TNF reporter robust z-score = 2.54; outcome = inactive
OR13C8 (GeneID 138802): TNF reporter robust z-score = -0.78; outcome = inactive
OR13C8 (GeneID 138802): TNF reporter robust z-score = -1.55; outcome = active
OR13C8 (GeneID 138802): TNF reporter robust z-score = -1.68; outcome = active
OR13C8 (GeneID 138802): TNF reporter robust z-score = -1.03; outcome = inactive
MEX3D (GeneID 399664): TNF reporter robust z-score = -2.2; outcome = active
MEX3D (GeneID 399664): TNF reporter robust z-score = -1.92; outcome = active
MEX3D (GeneID 399664): TNF reporter robust z-score = -1.32; outcome = inactive
MEX3D (GeneID 399664): TNF reporter robust z-score = -2.08; outcome = active
ACAP1 (GeneID 9744): TNF reporter robust z-score = 0.11; outcome = inactive
ACAP1 (GeneID 9744): TNF reporter robust z-score = 0.32; outcome = inactive
ACAP1 (GeneID 9744): TNF reporter robust z-score = -0.16; outcome = inactive
ACAP1 (GeneID 9744): TNF reporter robust z-score = -0.27; outcome = inactive
COL6A2 (GeneID 1292): TNF reporter robust z-score = 0.01; outcome = inactive
COL6A2 (GeneID 1292): TNF reporter robust z-score = 0.77; outcome = inactive
COL6A2 (GeneID 1292): TNF reporter robust z-score = 0.82; outcome = inactive
COL6A2 (GeneID 1292): TNF reporter robust z-score = 1.36; outcome = inactive
KRT73 (GeneID 319101): TNF reporter robust z-score = 1.03; outcome = inactive
KRT73 (GeneID 319101): TNF reporter robust z-score = -0.64; outcome = inactive
KRT73 (GeneID 319101): TNF reporter robust z-score = -0.84; outcome = inactive
KRT73 (GeneID 319101): TNF reporter robust z-score = 1.38; outcome = inactive
LCE2B (GeneID 26239): TNF reporter robust z-score = -0.07; outcome = inactive
LCE2B (GeneID 26239): TNF reporter robust z-score = -0.03; outcome = inactive
LCE2B (GeneID 26239): TNF reporter robust z-score = 1.06; outcome = inactive
LCE2B (GeneID 26239): TNF reporter robust z-score = -0.41; outcome = inactive
ERLIN1 (GeneID 10613): TNF reporter robust z-score = 0.91; outcome = inactive
ERLIN1 (GeneID 10613): TNF reporter robust z-score = 2.08; outcome = inactive
ERLIN1 (GeneID 10613): TNF reporter robust z-score = 0.14; outcome = inactive
ERLIN1 (GeneID 10613): TNF reporter robust z-score = 1.52; outcome = inactive
CHD2 (GeneID 1106): TNF reporter robust z-score = 2.17; outcome = inactive
CHD2 (GeneID 1106): TNF reporter robust z-score = 1.84; outcome = inactive
CHD2 (GeneID 1106): TNF reporter robust z-score = 1.03; outcome = inactive
CHD2 (GeneID 1106): TNF reporter robust z-score = 0.95; outcome = inactive
ENTPD7 (GeneID 57089): TNF reporter robust z-score = -0.83; outcome = inactive
ENTPD7 (GeneID 57089): TNF reporter robust z-score = -0.47; outcome = inactive
ENTPD7 (GeneID 57089): TNF reporter robust z-score = -0.43; outcome = inactive
ENTPD7 (GeneID 57089): TNF reporter robust z-score = 1.18; outcome = inactive
CACNB3 (GeneID 784): TNF reporter robust z-score = -0.42; outcome = inactive
CACNB3 (GeneID 784): TNF reporter robust z-score = 0.06; outcome = inactive
CACNB3 (GeneID 784): TNF reporter robust z-score = 0.22; outcome = inactive
CACNB3 (GeneID 784): TNF reporter robust z-score = 0.69; outcome = inactive
DCT (GeneID 1638): TNF reporter robust z-score = -0.32; outcome = inactive
DCT (GeneID 1638): TNF reporter robust z-score = -0.18; outcome = inactive
DCT (GeneID 1638): TNF reporter robust z-score = 0.2; outcome = inactive
DCT (GeneID 1638): TNF reporter robust z-score = -0.03; outcome = inactive

Ordered by “TNF reporter robust z-score” (low to high): 6 of the entries above
OR13C8 (GeneID 138802): TNF reporter robust z-score = -1.55; outcome = active
OR13C8 (GeneID 138802): TNF reporter robust z-score = -0.78; outcome = inactive
TBC1D28 (GeneID 254272): TNF reporter robust z-score = 0.45; outcome = inactive
TBC1D28 (GeneID 254272): TNF reporter robust z-score = 0.59; outcome = inactive
TBC1D28 (GeneID 254272): TNF reporter robust z-score = 0.84; outcome = inactive
TBC1D28 (GeneID 254272): TNF reporter robust z-score = 2.54; outcome = inactive
